Laboratory results published in the M2OR odorant receptor database.
The entries are a selection whose mix differs from that of the whole data set. Calls are pooled over several reports, among them a noisy single-well screen. The list shows a part of the results.

By UniProt entry, the sequences of proteins in these tests, tags left out. Chains listed by the source or under a name are the forms on record and can include a tag or linker.
UniProt Q8VH16, as listed by the source: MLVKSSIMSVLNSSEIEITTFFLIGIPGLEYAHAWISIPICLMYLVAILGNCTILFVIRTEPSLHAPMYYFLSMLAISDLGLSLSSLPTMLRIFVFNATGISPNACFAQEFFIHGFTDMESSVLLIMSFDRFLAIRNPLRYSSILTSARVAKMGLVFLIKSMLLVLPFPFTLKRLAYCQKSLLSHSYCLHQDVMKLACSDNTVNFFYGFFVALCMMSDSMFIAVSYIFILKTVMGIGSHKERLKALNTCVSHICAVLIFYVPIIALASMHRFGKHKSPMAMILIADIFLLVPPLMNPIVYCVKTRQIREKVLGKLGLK
UniProt Q8VH20, as listed by the source: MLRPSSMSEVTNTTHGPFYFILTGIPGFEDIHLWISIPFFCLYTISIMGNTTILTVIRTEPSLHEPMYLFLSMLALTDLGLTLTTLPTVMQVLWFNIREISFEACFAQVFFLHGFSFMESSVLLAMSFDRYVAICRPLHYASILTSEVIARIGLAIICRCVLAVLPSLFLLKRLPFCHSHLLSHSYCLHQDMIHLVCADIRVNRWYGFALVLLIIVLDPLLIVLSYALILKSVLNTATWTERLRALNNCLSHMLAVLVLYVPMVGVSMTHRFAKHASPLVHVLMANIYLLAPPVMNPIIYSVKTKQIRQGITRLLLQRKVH
UniProt Q8VH21, as listed by the source: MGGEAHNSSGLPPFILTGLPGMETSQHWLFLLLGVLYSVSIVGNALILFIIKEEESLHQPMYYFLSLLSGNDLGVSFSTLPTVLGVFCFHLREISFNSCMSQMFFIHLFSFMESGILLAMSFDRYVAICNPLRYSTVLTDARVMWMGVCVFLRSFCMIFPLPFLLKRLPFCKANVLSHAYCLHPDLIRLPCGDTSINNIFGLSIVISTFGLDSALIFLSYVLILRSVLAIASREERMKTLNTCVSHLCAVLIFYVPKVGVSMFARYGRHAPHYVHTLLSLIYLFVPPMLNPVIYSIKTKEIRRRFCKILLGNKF
UniProt Q924H8, as listed by the source: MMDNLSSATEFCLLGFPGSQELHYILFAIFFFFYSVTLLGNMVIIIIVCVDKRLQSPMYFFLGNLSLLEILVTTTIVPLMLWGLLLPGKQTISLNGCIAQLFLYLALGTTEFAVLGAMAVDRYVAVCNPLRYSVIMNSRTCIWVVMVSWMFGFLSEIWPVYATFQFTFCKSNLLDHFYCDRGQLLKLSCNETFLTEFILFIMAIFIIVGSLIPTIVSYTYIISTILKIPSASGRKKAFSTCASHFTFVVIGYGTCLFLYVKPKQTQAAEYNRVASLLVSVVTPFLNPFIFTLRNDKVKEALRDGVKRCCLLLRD
UniProt Q920P1, as listed by the source: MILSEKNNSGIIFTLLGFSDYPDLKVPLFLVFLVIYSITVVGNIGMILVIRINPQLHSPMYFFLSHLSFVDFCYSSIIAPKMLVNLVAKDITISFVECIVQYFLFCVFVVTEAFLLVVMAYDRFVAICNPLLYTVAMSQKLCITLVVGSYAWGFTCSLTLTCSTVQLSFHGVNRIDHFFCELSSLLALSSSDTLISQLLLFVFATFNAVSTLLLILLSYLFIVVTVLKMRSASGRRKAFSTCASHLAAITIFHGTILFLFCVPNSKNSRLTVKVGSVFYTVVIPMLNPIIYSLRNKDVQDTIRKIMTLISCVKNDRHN
UniProt Q920P2, as listed by the source: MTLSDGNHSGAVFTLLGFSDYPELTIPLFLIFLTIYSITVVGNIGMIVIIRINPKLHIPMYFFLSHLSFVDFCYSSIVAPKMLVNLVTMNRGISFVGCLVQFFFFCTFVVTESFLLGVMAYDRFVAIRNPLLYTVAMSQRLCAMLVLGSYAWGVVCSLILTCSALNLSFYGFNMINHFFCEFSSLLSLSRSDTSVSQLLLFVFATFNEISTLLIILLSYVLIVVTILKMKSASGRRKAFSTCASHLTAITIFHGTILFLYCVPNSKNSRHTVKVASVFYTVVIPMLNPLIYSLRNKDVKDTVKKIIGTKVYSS

Legend:
Conditions in all cases: stereoisomer not certain
UniProt Q8VH16 = target: UniProt Q8VH16
How it was run: (§1)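 Each receptor–molecule pair is labelled responsive or non-responsive (inactive) according to whether the original authors judged the measured signal statistically different from baseline. The data were taken from the main text and supplementary material of published papers and checked for typos and inconsistencies. Assay methods differed by source, with transient luciferase assays in mammalian cell lines being common.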

UniProt Q8VH20 = target: UniProt Q8VH20
How it was run: as §1

UniProt Q8VH21 = target: UniProt Q8VH21
How it was run: as §1

UniProt Q924H8 = target: UniProt Q924H8
How it was run: as §1

UniProt Q920P1 = target: UniProt Q920P1
How it was run: as §1

UniProt Q920P2 = target: UniProt Q920P2
How it was run: as §1

Measured: odorant receptor agonist call

CCC(C)=O
inactive: UniProt Q8VH16 | UniProt Q8VH20 | UniProt Q8VH21 | UniProt Q924H8

CCOc1cc(C=O)ccc1O
active: UniProt Q920P1 | UniProt Q920P2
inactive: all other assays above
